Experimental findings from PubChem BioAssay AID588463 (National Center for Advancing Translational Sciences (NCATS), 2011) are described below.

Screen size: about 1,200 compounds; about 15 (1%) were called active. About 7% were inconclusive and are not listed. Calls come from the whole dose curve; as a rule, active = well fitted activation curve with a large enough effect; inconclusive = small, poorly fitted or top-dose-only effect; inactive = flat fitted curve, though single readings scatter. Some of the results follow.
Potency is the fitted concentration of half-maximal effect.

The target of this experiment is Beta-2 adrenergic receptor (Homo sapiens) (UniProt P07550). In words: qHTS assay of beta-arrestin-biased ligands of beta2-adrenergic receptor: Hit Validation.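 For activation: plate controls were DMSO for no effect and maximal isoproterenol or metaproterenol response for full effect.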 The note with it: cell-based beta-arrestin recruitment to beta2AR; Potency: activation; series mostly up to 46.1 µM; activation: at the top concentration. The method, boiled down: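 Tango beta-arrestin recruitment assay in cells at 1500 cells/well in 1% FBS medium, 18 h compound exposure at 37 °C. Luciferase luminescence read 15 min after substrate addition; %activity curves classified by curve class.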
Background: qHTS replaces the single test concentration by a dilution series.
On to `CC1=NN(C(N)=S)C(=O)C1N=Nc1ccc(F)cc1` (centres undefined), for which the “activation” value is inactive: 0.894%. As to `CC(C)(C)NC(=O)C(c1ccc(F)cc1)N(Cc1ccccc1Cl)C(=O)c1ccn[nH]1` (centres undefined), the “activation” value is inactive: 7.27%. The same measure, in the same setting: under `C[C@H](CO)N1C[C@H](C)[C@@H](CN(C)Cc2ccccc2)Oc2c(NC(=O)Cc3ccccc3)cccc2C1=O` stands inactive: 7.66%; under `CCN(Cc1ccc2c(c1)OCCO2)C(=O)CN1C(=O)NC2(CCc3ccccc32)C1=O` (centres undefined), inactive: -0.571%; under `CCOc1ccc(/C(CCC(=O)O)=N/NC(=S)NCCc2ccccc2)cc1`, inactive: -2%. For `Cc1ccc(C)c(-n2c(SCC(=O)O)nc3sc4c(c3c2=O)CCCC4)c1`, the “activation” value was inactive: 0.43%. Same read-out and setting: next, `C/C(CCc1ccccc1)=N/NC(=O)C(=O)NC(C)c1ccccc1` (centres undefined): inactive: -3.24%; `Cc1cc(C)n(-c2nc(NC(C)C)nc(NC(C)C)n2)n1`: inactive: -3.01%; `COCCNC(=S)N/N=C(\C)CCc1ccc2c(c1)OCO2`: inactive: -3.71%. Regarding `CCNC(=S)NNc1ccccc1`, the “activation” value was inactive: -0.243%. As to `C/C(=N\NC(=S)NC(C)C)c1ccccc1`, the “activation” value was inactive: -3.07%. Turning to `O=C(/C=C/Sc1ncn[nH]1)c1ccc(Cl)cc1`, the “activation” value is inactive: -7.78%.

For `O=C(O)CCC(=O)N1N=C(c2ccccc2)CC1c1ccc2nccnc2c1` (centres undefined), the “activation” value was inactive: -2.51%.

On to `O=[N+]([O-])c1ccc(O)c2ncccc12`, for which the “activation” value is inactive: -2.92%. As to `O=C(/C=C/c1ccc(Cl)cc1)NC(=S)Nc1ccccc1C(=O)O`, the “activation” value was inactive: 0.6%. Same read-out and setting: under `Cc1cc(C)nc(S/C=C/C(=O)c2ccccc2)n1` stands inactive: -1.99%; under `CC/C(=N\NC(=S)NC(C)C)c1ccc(OC)c(OC)c1`, inactive: -4.65%. For the compound `CC(Oc1ccc(Br)cc1)C(=O)Nc1nc(-c2ccccn2)cs1` (centres undefined), the “activation” value is inactive: 5.09%. For `NC(=S)NN=C1C2CC3CC(C2)CC1C3`, the “activation” value is inactive: -2.78%.

Consider `FC(F)(F)c1ccc(Cl)c(-n2c(Cc3cccs3)n[nH]c2=S)c1`, for which the “activation” value was inactive: -2.18%. Same read-out and setting: next, `O=C(OCc1ccc([N+](=O)[O-])cc1Cl)c1cnccn1`: inactive: -4.6%; `C=CCN1CCc2cc(O)c(O)cc2C(c2ccccc2)C1` (centres undefined): inactive: -3.24%; `COc1cc(/C=N/NC(N)=S)ccc1OC(=O)c1ccc(C)cc1`: inactive: -2.34%.

On to `C/C(=N\NC(=S)NCc1ccccc1)c1ccccc1F`, for which the “activation” value is inactive: -1.61%. On to `CN1C(=S)SC(C)(C)C1(C)NO` (centres undefined), for which the “activation” value is inactive: -3.28%. As for `COCCCNC(=S)N/N=C/c1cccc(OC)c1O`, the “activation” value is inactive: -2.06%. Regarding `CC(OC(=O)Cc1ccccc1[N+](=O)[O-])C(=O)Nc1ccc(Cl)cn1` (centres undefined), the “activation” value was inactive: 1.98%. On to `CC(=O)c1ccc(N2CCN(C(=O)C3CCCN(S(=O)(=O)c4c(C)[nH]c(=O)[nH]c4=O)C3)CC2)cc1` (centres undefined), for which the “activation” value was inactive: -4.9%. On the same count and under the same terms, next, `CNC(=S)N/N=C/c1cc(C)ccc1C`: inactive: -3.17%.

In the case of `COc1ccc(OCC(O)CN2CCN(c3ccccc3)CC2)cc1` (centres undefined), the “activation” value is inactive: -3.18%. For `CC(C)(C)NC(=S)NNC(=O)c1cccc(Br)c1`, the “activation” value was inactive: -2.45%. For the compound `c1coc(CNc2nc3nonc3nc2NCc2ccco2)c1`, the “activation” value was inactive: -4.43%. In the case of `Cc1nonc1NC(=O)CSc1nc2ccccc2o1`, the “activation” value was inactive: -2.99%. With `O=C(CSc1n[nH]c(=O)n1-c1cccnc1)N1CCOCC1`, the “activation” value was inactive: -2.41%. Turning to `CNc1sc(C(=O)c2cccs2)c(N)c1-c1nc2ccccc2s1`, the “activation” value was inactive: -2.76%.

`S=c1[nH]c(-c2ccccc2)cn1/N=C/c1cccs1`: the “activation” value was inactive: -3.12%. In the case of `c1ccc2[nH]c(NN=C3CCCCCC3)nc2c1`, the “activation” value is inactive: -0.141%. In the case of `CCOc1ccc(C(=O)Nc2ccccc2OC(F)F)cc1`, the “activation” value is inactive: -4.99%.

For the compound `CCCCCC1CCC(c2n[nH]c(=S)n2C)CC1` (centres undefined), the “activation” value is inactive: -5.76%. As to `CCOC(=O)c1cccc(NC(=O)c2cncc(Br)c2)c1`, the “activation” value was inactive: -2%. Take `FC(F)(F)c1cnc(N2CCSCC2)c(Cl)c1`: the “activation” value was inactive: -6.12%. On the same count and under the same terms, next, `Cc1cc(NC(=O)CSc2nnc(-c3ccoc3C)o2)no1`: inactive: -0.559%. Regarding `CC1CC(C)CN(C(=O)C2CCN(C(=O)Nc3ccccc3)CC2)C1` (centres undefined), the “activation” value was inactive: -3.35%. For the compound `C/C(=N\NC(=S)NCCc1ccccc1)c1ccc(Cl)cc1Cl`, the “activation” value was inactive: -2.3%. Take `CCOc1ccc(CC(=O)Nc2ccc(S(=O)(=O)Nc3cc(C)on3)cc2)cc1OCC`: the “activation” value was inactive: -2.63%.

Regarding `COC(=O)COc1cccc2c(=O)n(CC(=O)Nc3ccc4c(c3)OCCO4)ccc12`, the “activation” value was inactive: -2.75%. Still for that read-out and setting: next, `O=C(O)c1ccc(C2Nc3ccccc3C(=O)N2Cc2ccccc2)cc1` (centres undefined): inactive: -0.733%; `COCCOC(=O)c1sc(=S)n(CCOC)c1N`: inactive: -0.28%; `Cc1ccc(C2C3=C(CC(C)(C)CC3=O)NC3=C2C(=O)c2ccccc23)cc1` (centres undefined): inactive: 0.4%. With `O=C(N/N=C/c1ccc(Br)s1)c1cccnc1`, the “activation” value is inactive: -0.956%. Turning to `Oc1c(C(c2ccccn2)N2CCCCC2)cc(Cl)c2cccnc12` (centres undefined), the “activation” value was inactive: 5.16%.

`Cc1ccc2c(c1)C(=O)N1[C@H]3c4ccccc4OC[C@@H]3[C@H](c3ccccc3)[C@]1(C)C(=O)N2`: the “activation” value was inactive: 1.92%. `CN(c1ccccc1)S(=O)(=O)c1ccc(C(=O)Nc2nccs2)cc1`: the “activation” value is inactive: -3.61%. Regarding `CC(C)c1nnc(NC(=O)c2cnccn2)s1`, the “activation” value is inactive: 0.236%.

In the case of `CCc1nnc(NC(=O)CSc2nnc(-c3ccccc3NC(=O)c3ccccc3)o2)s1`, the “activation” value is inactive: -3.34%. Regarding `Cc1ccccc1NC(=O)NNC(=O)c1ccc2ccccc2c1O`, the “activation” value was inactive: -2.57%. The same measure, in the same setting: under `Cc1ccccc1-c1nc2c3ccccc3nc(=S)n2[nH]1` stands inactive: -2.3%. For `Cc1cccc(-c2ocnc2C(=O)Nc2ccccc2NC(=O)c2ccccn2)c1`, the “activation” value is inactive: -0.383%. On to `COC(=O)C1=C(C)N(Cc2ccc(C)cc2)C(=O)/C1=C\c1ccc(O)c(OC)c1`, for which the “activation” value was inactive: -0.487%.

Turning to `COc1ccc(NC(=O)CN(C)C(=O)CCCNC(=O)c2ccc(Cl)cc2)cc1`, the “activation” value is inactive: -0.626%.

As for `CCCC(=O)NC(c1ccc(OC)cc1)c1ccc2cccnc2c1O` (centres undefined), the Potency is active: 4.11 µM. Consider `CC(=O)Nc1ccc(NC(=O)Cn2nc(C(=O)Nc3ccc(C)cc3)ccc2=O)cc1`, for which the “activation” value is inactive: -1.69%. For `O=C(Oc1c(-c2ccco2)oc2ccccc2c1=O)c1cccnc1`, the “activation” value is inactive: 4.95%. With `CC(C)OC(=O)c1cn(-c2ccccc2)nc1-c1ccco1`, the “activation” value was inactive: -0.0451%. Consider `C=CCNC(=S)N/N=C/c1ccc(C)cc1C`, for which the “activation” value is inactive: -3.51%. `O=[N+]([O-])c1cc(Cl)c(O)c2ncccc12`: the “activation” value was inactive: -3.14%. `N#C/C(=C\c1cccc(O)c1)C(=O)Nc1ccc2c(c1)OCCO2`: the “activation” value was inactive: -1.72%.

Regarding `O=C(NCCN1CCOCC1)c1ccccc1Cl`, the “activation” value was inactive: 0.534%. As for `Cc1cc(-c2ccccc2)nc(N/N=C/c2ccccc2F)n1`, the “activation” value was inactive: -1.55%.

For `N#CC1=C(N)OC2=C(CC/C2=C\c2ccccc2)C1c1ccccc1` (centres undefined), the “activation” value is inactive: -3.08%. In the case of `C/C(=N\NC(=S)NCc1ccccc1)c1ccc(C)o1`, the “activation” value was inactive: -0.562%.

`O=C(C[n+]1cn(C(F)F)c2ccccc21)c1ccc(OC(F)F)cc1`: the “activation” value was inactive: -5.07%. `CC(=O)Nc1ccc(NC(=O)CSc2nnc(-c3cccs3)n2N)cc1`: the “activation” value is inactive: -1.04%. As to `CC(=O)c1c(N2CCOCC2)nc(=O)n(-c2ccccc2)c1C`, the “activation” value was inactive: -3.04%.
